Consider one substance from PMC5399554.

The chains behind the UniProt entries cited, without tags or fusion partners. Residues count along the entry.
UniProt P38647, residues 47-679: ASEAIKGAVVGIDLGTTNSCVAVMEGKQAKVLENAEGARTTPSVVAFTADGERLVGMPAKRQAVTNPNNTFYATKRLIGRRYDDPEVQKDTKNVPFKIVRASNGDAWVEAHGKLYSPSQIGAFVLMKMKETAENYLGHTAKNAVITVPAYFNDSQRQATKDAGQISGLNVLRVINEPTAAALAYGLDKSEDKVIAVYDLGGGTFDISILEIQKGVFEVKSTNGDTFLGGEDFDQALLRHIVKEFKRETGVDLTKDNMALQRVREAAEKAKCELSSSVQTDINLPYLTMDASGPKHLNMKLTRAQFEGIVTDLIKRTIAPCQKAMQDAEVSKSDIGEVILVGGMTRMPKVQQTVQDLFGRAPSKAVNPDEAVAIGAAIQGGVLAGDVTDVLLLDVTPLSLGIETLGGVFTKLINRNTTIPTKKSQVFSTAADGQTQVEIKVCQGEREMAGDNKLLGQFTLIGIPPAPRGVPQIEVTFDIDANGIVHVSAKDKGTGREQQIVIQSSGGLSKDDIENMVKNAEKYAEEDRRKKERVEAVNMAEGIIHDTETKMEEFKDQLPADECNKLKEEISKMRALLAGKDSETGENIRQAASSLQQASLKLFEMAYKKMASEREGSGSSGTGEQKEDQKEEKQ
UniProt A1KFR2: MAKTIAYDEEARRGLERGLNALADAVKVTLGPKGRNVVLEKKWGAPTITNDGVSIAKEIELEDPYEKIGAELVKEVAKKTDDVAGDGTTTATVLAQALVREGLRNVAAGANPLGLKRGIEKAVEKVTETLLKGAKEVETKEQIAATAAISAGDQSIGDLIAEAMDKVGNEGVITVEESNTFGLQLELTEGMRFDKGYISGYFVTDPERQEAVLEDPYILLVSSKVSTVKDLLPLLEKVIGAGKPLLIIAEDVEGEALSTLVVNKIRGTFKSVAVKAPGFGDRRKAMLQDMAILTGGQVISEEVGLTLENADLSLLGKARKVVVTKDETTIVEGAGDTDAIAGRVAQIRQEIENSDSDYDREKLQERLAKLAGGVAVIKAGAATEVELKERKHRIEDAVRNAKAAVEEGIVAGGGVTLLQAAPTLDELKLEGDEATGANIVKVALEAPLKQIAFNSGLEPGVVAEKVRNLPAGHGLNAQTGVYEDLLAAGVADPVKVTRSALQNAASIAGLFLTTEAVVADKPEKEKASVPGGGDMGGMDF

Results are given in words; binding and its absence hold for the method and conditions named. In cells and extracts the contact can be indirect. Some binding calls cover weakened binding; strength is not graded here.

For the test, the target named is mortalin, endogenous in BCG-infected RAW macrophages (mouse (endogenous in RAW 264.7)) (UniProt P38647). The test can be described thus: co-IP.

“Cpn60.2 of M. bovis BCG in infected macrophages (from UniProt A1KFR2 1-540)”: the binding result is “binds”.
